Measurements reported in PMC8763660.
No constants are given. Whether binding was seen depends on the method and setting. Binding seen in cells or lysates may run through a third protein. Tags and fused reporters may be left off the sequences shown.

Chains of the proteins cited; added tags and fusions are not shown. Residues count along the entry.
UniProt Q13443, residues 29-819: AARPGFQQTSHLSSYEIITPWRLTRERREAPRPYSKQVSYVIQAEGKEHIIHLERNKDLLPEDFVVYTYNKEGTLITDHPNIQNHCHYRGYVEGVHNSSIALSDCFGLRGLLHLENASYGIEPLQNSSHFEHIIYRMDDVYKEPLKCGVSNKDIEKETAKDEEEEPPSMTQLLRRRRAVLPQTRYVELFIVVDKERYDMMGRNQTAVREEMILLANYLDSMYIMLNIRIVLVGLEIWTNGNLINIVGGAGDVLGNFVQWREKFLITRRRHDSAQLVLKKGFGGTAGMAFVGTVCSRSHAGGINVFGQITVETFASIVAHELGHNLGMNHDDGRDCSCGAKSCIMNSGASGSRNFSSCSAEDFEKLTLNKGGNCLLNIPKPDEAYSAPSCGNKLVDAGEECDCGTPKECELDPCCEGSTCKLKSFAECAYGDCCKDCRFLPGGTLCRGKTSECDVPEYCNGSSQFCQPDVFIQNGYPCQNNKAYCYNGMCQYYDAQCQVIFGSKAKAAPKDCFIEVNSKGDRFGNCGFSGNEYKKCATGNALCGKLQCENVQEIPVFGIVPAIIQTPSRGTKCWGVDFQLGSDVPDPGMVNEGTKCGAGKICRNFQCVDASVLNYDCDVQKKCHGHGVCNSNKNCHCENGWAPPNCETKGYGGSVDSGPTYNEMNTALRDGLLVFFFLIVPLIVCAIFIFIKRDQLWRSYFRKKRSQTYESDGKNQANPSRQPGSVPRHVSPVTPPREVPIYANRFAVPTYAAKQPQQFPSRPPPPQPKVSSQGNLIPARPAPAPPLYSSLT

Biological target: Flag-tagged ADAM9 (disintegrin and metalloproteinase domain-containing protein 9) (human) (UniProt Q13443)
Test: co-IP; Myc-tagged USP39 and Flag-tagged ADAM9 co-transfected with or without HA-tagged Ub into HEK293T cells; which protein was precipitated not given

binding: no binding
B1: Myc-tagged USP39 (ubiquitin-specific peptidase 39) (protein, UniProt Q53GS9 1-565)
chain: MSGRSKRESRGSTRGKRESESRGSSGRVKRERDREREPEAASSRGSPVRVKREFEPASAREAPASVVPFVRVKREREVDEDSEPEREVRAKNGRVDSEDRRSRHCPYLDTINRSVLDFDFEKLCSISLSHINAYACLVCGKYFQGRGLKSHAYIHSVQFSHHVFLNLHTLKFYCLPDNYEIIDSSLEDITYVLKPTFTKQQIANLDKQAKLSRAYDGTTYLPGIVGLNNIKANDYANAVLQALSNVPPLRNYFLEEDNYKNIKRPPGDIMFLLVQRFGELMRKLWNPRNFKAHVSPHEMLQAVVLCSKKTFQITKQGDGVDFLSWFLNALHSALGGTKKKKKTIVTDVFQGSMRIFTKKLPHPDLPAEEKEQLLHNDEYQETMVESTFMYLTLDLPTAPLYKDEKEQLIIPQVPLFNILAKFNGITEKEYKTYKENFLKRFQLTKLPPYLIFCIKRFTKNNFFVEKNPTIVNFPITNVDLREYLSEEVQAVHKNTTYDLIANIVHDGKPSEGSYRIHVLHHGTGKWYELQDLQVTDILPQMITLSEAYIQIWKRRDNDETNQQGA
